Test results published in the supplement of paper PMC10849652.
This is one part of the list.

The chains behind the UniProt entries cited, without tags or fusion partners. Where a name states a change or a piece, a line headed by the entry shows the natural chain unless it says otherwise.
UniProt Q8TF68: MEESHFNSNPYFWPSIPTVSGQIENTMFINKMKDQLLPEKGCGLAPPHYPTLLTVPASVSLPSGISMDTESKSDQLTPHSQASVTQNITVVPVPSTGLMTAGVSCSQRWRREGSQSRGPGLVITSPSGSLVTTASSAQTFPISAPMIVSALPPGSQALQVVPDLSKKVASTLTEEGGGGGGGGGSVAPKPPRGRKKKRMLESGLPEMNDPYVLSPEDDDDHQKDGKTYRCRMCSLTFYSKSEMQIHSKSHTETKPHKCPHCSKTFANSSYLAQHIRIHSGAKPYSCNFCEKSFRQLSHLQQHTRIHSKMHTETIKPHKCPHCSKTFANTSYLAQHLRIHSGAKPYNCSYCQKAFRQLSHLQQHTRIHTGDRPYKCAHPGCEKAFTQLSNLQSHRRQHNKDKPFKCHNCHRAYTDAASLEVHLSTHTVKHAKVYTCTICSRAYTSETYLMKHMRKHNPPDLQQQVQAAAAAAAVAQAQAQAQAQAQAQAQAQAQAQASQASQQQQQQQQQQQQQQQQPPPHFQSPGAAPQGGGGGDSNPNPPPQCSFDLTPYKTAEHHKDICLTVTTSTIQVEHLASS
UniProt Q8NAF0: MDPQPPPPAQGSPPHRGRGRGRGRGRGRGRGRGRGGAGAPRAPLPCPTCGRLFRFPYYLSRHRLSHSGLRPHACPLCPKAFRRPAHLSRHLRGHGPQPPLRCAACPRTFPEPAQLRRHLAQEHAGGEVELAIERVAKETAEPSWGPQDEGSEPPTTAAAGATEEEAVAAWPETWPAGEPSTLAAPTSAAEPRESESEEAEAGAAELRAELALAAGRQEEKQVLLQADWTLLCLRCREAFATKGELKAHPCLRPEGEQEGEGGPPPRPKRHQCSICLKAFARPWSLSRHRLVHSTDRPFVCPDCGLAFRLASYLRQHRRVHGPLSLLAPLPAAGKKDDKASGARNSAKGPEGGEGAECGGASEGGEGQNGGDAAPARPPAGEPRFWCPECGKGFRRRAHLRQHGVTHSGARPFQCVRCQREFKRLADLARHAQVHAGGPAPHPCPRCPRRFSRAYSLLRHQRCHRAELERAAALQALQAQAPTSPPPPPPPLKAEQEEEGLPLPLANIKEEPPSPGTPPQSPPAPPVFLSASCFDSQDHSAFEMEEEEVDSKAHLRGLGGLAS
UniProt Q9Y5V0: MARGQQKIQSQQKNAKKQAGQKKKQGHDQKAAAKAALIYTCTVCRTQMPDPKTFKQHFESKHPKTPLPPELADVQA
UniProt O15014: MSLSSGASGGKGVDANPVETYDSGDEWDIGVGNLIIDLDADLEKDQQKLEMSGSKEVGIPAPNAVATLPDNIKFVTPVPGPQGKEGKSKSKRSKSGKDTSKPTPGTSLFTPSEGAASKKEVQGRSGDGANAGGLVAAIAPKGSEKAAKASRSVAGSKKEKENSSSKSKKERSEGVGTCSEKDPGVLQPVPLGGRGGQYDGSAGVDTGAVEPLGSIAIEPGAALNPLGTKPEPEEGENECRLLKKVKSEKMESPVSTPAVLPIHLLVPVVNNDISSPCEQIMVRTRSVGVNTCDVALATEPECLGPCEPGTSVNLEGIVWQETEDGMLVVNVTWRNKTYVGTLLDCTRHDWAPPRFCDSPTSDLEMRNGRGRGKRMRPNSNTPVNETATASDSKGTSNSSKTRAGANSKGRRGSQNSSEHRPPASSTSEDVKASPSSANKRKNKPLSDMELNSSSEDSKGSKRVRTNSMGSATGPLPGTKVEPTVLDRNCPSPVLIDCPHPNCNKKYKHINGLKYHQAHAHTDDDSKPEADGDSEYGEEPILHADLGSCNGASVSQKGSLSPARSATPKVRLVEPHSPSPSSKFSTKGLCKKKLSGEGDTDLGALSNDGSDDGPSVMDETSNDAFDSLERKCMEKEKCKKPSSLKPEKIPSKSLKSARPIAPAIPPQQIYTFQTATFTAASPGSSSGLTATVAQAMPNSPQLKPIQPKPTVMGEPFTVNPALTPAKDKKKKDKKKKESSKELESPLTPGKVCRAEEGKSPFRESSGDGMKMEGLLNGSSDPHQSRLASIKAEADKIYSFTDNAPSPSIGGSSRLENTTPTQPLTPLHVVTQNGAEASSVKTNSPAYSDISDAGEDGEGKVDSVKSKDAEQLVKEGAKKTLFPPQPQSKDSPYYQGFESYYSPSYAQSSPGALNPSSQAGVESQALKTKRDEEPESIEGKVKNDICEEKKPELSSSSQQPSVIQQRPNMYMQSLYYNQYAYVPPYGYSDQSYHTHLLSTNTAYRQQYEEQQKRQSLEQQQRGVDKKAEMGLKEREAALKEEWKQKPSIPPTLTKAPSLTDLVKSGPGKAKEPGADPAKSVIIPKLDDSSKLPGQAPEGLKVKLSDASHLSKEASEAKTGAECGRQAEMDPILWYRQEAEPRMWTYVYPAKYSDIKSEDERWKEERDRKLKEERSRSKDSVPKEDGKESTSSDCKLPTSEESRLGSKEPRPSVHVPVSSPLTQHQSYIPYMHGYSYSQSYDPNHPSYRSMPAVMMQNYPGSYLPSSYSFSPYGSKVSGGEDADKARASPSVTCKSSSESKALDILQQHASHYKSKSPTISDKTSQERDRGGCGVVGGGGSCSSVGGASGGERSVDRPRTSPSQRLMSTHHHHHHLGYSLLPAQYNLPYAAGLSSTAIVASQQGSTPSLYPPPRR
UniProt Q15649: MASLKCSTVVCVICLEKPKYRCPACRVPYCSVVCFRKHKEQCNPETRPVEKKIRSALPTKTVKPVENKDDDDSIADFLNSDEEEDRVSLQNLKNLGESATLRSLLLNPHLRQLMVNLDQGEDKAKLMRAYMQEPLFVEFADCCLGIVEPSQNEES
UniProt Q499Z4: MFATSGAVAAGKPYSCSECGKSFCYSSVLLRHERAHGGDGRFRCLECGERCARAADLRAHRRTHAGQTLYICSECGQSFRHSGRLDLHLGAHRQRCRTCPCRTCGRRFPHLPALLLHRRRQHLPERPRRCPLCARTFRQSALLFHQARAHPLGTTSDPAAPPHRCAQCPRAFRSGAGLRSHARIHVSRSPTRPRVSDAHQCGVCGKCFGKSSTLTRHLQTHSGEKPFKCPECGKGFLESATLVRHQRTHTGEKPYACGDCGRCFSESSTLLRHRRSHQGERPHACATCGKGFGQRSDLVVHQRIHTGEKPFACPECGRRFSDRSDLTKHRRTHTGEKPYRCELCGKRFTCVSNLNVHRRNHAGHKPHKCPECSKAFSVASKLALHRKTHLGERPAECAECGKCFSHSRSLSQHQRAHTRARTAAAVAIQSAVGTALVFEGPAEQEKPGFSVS
UniProt Q9C0D3: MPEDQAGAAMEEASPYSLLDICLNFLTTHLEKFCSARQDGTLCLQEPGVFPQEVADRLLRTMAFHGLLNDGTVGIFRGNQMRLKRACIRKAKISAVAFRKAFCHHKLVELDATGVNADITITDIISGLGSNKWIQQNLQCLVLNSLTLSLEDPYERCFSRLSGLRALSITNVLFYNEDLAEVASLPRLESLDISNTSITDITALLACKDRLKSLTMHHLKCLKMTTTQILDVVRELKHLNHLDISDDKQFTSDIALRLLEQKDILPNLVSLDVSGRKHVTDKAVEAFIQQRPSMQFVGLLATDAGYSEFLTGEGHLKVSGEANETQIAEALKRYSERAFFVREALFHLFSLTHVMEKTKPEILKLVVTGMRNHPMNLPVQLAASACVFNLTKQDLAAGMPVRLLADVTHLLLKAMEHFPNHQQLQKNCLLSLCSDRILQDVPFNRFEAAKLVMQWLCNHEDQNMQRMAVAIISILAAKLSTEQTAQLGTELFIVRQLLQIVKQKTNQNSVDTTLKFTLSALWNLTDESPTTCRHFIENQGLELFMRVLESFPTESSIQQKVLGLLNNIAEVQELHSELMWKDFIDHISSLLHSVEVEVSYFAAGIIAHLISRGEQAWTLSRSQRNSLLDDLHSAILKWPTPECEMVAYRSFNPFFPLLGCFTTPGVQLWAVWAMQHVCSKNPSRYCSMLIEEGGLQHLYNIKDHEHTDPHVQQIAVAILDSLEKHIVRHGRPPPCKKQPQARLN
UniProt Q9NWK9: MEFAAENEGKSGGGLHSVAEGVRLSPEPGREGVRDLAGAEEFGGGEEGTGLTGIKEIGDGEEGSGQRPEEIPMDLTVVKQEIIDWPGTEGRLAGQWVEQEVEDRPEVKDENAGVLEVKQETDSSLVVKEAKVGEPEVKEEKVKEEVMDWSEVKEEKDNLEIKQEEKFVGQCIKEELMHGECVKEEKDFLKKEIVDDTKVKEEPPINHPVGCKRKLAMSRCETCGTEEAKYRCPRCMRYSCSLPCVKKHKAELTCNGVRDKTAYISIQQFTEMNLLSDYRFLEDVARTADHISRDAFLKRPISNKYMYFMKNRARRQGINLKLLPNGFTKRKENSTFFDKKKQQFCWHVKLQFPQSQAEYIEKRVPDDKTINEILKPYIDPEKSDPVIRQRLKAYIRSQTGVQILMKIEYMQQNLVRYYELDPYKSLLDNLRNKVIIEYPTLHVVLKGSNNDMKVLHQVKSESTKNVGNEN
UniProt O00488: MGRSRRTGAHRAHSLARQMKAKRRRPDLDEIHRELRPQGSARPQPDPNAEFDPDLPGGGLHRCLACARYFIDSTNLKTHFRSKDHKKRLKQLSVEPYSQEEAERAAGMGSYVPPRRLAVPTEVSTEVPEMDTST
UniProt Q6DD87: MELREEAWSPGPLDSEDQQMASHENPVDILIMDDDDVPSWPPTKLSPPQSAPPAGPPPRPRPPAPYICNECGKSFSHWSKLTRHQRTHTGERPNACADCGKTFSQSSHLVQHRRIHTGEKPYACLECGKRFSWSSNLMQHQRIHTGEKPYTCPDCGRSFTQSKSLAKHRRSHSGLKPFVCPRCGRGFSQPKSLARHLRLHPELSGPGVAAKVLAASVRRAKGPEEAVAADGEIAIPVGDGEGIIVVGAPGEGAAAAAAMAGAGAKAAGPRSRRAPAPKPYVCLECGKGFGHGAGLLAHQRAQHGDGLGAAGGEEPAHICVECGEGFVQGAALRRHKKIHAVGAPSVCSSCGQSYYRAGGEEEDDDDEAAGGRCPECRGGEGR
UniProt Q9H900: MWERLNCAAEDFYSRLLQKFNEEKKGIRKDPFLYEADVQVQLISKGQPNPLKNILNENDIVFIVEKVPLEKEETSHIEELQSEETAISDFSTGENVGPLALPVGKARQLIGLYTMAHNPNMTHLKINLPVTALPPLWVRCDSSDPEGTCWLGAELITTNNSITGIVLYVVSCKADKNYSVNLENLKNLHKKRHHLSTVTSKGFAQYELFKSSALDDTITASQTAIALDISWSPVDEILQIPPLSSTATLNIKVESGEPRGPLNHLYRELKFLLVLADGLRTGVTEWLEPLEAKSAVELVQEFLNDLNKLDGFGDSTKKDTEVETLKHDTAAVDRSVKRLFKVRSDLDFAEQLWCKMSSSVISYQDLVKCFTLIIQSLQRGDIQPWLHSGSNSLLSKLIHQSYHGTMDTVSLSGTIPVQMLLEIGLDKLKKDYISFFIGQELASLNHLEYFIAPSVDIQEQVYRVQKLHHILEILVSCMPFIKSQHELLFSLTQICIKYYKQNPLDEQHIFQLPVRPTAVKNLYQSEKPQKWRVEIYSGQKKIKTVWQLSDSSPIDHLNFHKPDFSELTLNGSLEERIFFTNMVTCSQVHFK
UniProt Q969S3: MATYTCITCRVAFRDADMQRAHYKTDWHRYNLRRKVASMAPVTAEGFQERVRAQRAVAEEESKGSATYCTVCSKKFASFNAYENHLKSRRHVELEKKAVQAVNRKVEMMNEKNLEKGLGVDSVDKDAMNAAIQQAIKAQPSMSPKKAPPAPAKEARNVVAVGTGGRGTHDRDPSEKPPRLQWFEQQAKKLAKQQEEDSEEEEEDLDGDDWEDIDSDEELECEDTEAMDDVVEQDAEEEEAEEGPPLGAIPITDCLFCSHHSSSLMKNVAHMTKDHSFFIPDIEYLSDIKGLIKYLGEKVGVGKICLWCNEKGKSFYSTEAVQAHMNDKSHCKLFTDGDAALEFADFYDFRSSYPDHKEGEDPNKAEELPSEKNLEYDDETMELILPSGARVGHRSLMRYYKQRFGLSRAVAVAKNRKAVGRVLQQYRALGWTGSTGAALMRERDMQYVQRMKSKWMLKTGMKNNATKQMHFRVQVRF
UniProt Q8ND25: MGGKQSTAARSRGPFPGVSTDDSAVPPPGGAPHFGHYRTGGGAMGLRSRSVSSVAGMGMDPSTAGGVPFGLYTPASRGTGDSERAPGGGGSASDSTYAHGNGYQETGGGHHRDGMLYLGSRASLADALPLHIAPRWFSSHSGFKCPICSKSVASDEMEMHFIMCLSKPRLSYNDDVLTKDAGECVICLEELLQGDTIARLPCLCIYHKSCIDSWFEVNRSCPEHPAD
UniProt Q96IQ9: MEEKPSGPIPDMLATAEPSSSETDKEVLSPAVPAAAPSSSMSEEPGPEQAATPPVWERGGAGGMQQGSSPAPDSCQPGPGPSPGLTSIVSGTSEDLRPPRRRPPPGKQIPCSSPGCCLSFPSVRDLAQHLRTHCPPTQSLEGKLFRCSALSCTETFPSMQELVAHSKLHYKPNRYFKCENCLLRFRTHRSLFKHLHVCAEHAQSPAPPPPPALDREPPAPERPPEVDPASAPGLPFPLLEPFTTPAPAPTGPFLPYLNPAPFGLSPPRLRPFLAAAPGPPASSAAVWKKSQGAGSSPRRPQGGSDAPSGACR

Each target was assayed with Cc1sc2c(c1C)C(c1ccc(Cl)cc1)=N[C@@H](CC(=O)OC(C)(C)C)c1nnc(C)n1-2 (assay: log2 fold change, soluble protein after heating vs DMSO (PISA); higher = thermal stabilisation; K562 cells, 10 uM, 30 min; active = over 0.2 and 3.5 SD of the protein, either way, in both replicates (recomputed)).
Outline: (§1)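 Values are thermal stability changes relative to control samples and are taken from duplicates. They are stated as log2 fold changes. Before quantification by TMTpro 16plex LC-MS/MS with equalised channel sums, K562 cells at 2×10^6 cells/mL were treated with 10 μM compound for 30 min, heated in aliquots for 3 min across 48°C-58°C, pooled, extracted in PBS with 0.5% NP-40 at 4°C, and centrifuged at 21,000xg for 90 min to give the soluble supernatant.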
In the case of ZNF384 (UniProt Q8TF68), the log2 fold change is reported as inactive: 0.018. With ZNF579 (UniProt Q8NAF0) the log2 fold change was inactive: 0.151. ZNF706 (UniProt Q9Y5V0) was tested, and the log2 fold change was inactive: 0.038. ZNF24 (UniProt P17028) was tested, and the log2 fold change was inactive: 0.112. In the case of ZNF609 (UniProt O15014), the log2 fold change is reported as inactive: 0.14. In the case of ZZEF1 (UniProt O43149), the log2 fold change is reported as inactive: 0.003. With ZNF511 isoform 1 (UniProt Q8NB15) the log2 fold change was inactive: -0.123. ZNHIT3 (UniProt Q15649) was tested, and the log2 fold change was inactive: 0.048. ZNF672 (UniProt Q499Z4) was tested, and the log2 fold change was inactive: 0.085. For ZNF428 (UniProt M0QXZ5), the log2 fold change was inactive: -0.009. With ZNF618 (UniProt Q5T7W0) the log2 fold change was inactive: 0.011. In the case of ZWINT (UniProt O95229), the log2 fold change is reported as inactive: -0.003. ZYX (UniProt Q15942) was tested, and the log2 fold change was inactive: 0.003. With ZNRD2 (UniProt O60232) the log2 fold change was inactive: -0.112. In the case of ZYG11B (UniProt Q9C0D3), the log2 fold change is reported as inactive: -0.02. In the case of ZNHIT6 (UniProt Q9NWK9), the log2 fold change is reported as inactive: 0.049. ZNRF2 (UniProt Q8NHG8) was tested, and the log2 fold change was inactive: -0.024. For ZW10 (UniProt O43264), the log2 fold change was inactive: -0.004. For ZNF768 (UniProt Q9H5H4), the log2 fold change was inactive: 0.175. In the case of ZNF385A (UniProt Q96PM9), the log2 fold change is reported as inactive: 0.044. In the case of ZNF593 (UniProt O00488), the log2 fold change is reported as inactive: 0.22. For ZNF691 (UniProt Q5VV52), the log2 fold change was inactive: 0.079. ZNF330 (UniProt Q9Y3S2) was tested, and the log2 fold change was inactive: 0.018. In the case of ZNF346 (UniProt Q9UL40), the log2 fold change is reported as inactive: 0.079. In the case of ZNF277 (UniProt Q9NRM2), the log2 fold change is reported as inactive: 0.286. For ZNRD1 (UniProt Q9P1U0), the log2 fold change was inactive: 0.034. With ZRANB2 (UniProt O95218) the log2 fold change was inactive: 0.021. For ZPR1 (UniProt O75312), the log2 fold change was inactive: -0.007. With ZNF787 (UniProt Q6DD87) the log2 fold change was inactive: 0.06. ZNF638 (UniProt Q14966) was tested, and the log2 fold change was inactive: 0.08. ZWILCH (UniProt Q9H900) was tested, and the log2 fold change was inactive: 0.037. ZNF830 (UniProt Q96NB3) was tested, and the log2 fold change was inactive: -0.027. With ZNF622 (UniProt Q969S3) the log2 fold change was inactive: -0.016. With ZNRF1 isoform 2 (UniProt Q8ND25) the log2 fold change was inactive: -0.028. ZNF629 (UniProt Q9UEG4) was tested, and the log2 fold change was inactive: 0.139. With ZNF598 (UniProt Q86UK7) the log2 fold change was inactive: 0.015.

The targets below were run with c1ccc([C@@H]2C[C@H]2NC2CCNCC2)cc1 in the same assay as above.
Outline: as §1
ZNF384 (UniProt Q8TF68) was tested, and the log2 fold change was inactive: -0.061. For ZNF414 isoform 2 (UniProt Q96IQ9), the log2 fold change was inactive: 0.314. In the case of ZNF579 (UniProt Q8NAF0), the log2 fold change is reported as inactive: -0.147. For ZNF706 (UniProt Q9Y5V0), the log2 fold change was inactive: 0. For ZNF24 (UniProt P17028), the log2 fold change was inactive: 0.034. With ZNF609 (UniProt O15014) the log2 fold change was inactive: 0.073. In the case of ZZEF1 (UniProt O43149), the log2 fold change is reported as inactive: -0.035. With ZNF511 isoform 1 (UniProt Q8NB15) the log2 fold change was inactive: 0.102. With ZNHIT3 (UniProt Q15649) the log2 fold change was inactive: 0.089. ZNF672 (UniProt Q499Z4) was tested, and the log2 fold change was inactive: -0.001. ZNF428 (UniProt M0QXZ5) was tested, and the log2 fold change was inactive: 0.092. With ZNF618 (UniProt Q5T7W0) the log2 fold change was inactive: -0.052. ZWINT (UniProt O95229) was tested, and the log2 fold change was inactive: 0.015. ZYX (UniProt Q15942) was tested, and the log2 fold change was inactive: 0.044. ZNRD2 (UniProt O60232) was tested, and the log2 fold change was inactive: -0.074. ZYG11B (UniProt Q9C0D3) was tested, and the log2 fold change was inactive: 0.044. In the case of ZNHIT6 (UniProt Q9NWK9), the log2 fold change is reported as inactive: 0.064. With ZNRF2 (UniProt Q8NHG8) the log2 fold change was inactive: 0.047. With ZW10 (UniProt O43264) the log2 fold change was inactive: 0. For ZNF768 (UniProt Q9H5H4), the log2 fold change was inactive: -0.044. In the case of ZNF385A (UniProt Q96PM9), the log2 fold change is reported as inactive: 0.018. For ZNF593 (UniProt O00488), the log2 fold change was inactive: -0.028. With ZNF691 (UniProt Q5VV52) the log2 fold change was inactive: 0.042. With ZNF330 (UniProt Q9Y3S2) the log2 fold change was inactive: 0.006. In the case of ZNF346 (UniProt Q9UL40), the log2 fold change is reported as inactive: 0.019. In the case of ZNF277 (UniProt Q9NRM2), the log2 fold change is reported as inactive: 0. For ZNRD1 (UniProt Q9P1U0), the log2 fold change was inactive: 0.05. ZRANB2 (UniProt O95218) was tested, and the log2 fold change was inactive: 0.093. For ZPR1 (UniProt O75312), the log2 fold change was inactive: -0.006. In the case of ZNF787 (UniProt Q6DD87), the log2 fold change is reported as inactive: 0.054. ZNF638 (UniProt Q14966) was tested, and the log2 fold change was inactive: 0.069. In the case of ZWILCH (UniProt Q9H900), the log2 fold change is reported as inactive: 0.002. With ZNF830 (UniProt Q96NB3) the log2 fold change was inactive: 0.049. With ZNF622 (UniProt Q969S3) the log2 fold change was inactive: -0.049. In the case of ZNRF1 isoform 2 (UniProt Q8ND25), the log2 fold change is reported as inactive: -0.078. ZNF629 (UniProt Q9UEG4) was tested, and the log2 fold change was inactive: 0.045. In the case of ZNF598 (UniProt Q86UK7), the log2 fold change is reported as inactive: -0.08.
